Assay results as given in US20060183130A1 (VANDERBILT UNIVERSITY, published 2006).
These are yes or no findings as the source states them, for the method shown. Binding seen in cells or lysates may run through a third protein. Some results given as binding are weak or reduced against the parent protein; the word gives no strength. Tags and fused reporters may be left off the sequences shown.

Amino acid sequences for entries named in this document (tags omitted). Residues count along the entry.
UniProt P01108, residues 16-454: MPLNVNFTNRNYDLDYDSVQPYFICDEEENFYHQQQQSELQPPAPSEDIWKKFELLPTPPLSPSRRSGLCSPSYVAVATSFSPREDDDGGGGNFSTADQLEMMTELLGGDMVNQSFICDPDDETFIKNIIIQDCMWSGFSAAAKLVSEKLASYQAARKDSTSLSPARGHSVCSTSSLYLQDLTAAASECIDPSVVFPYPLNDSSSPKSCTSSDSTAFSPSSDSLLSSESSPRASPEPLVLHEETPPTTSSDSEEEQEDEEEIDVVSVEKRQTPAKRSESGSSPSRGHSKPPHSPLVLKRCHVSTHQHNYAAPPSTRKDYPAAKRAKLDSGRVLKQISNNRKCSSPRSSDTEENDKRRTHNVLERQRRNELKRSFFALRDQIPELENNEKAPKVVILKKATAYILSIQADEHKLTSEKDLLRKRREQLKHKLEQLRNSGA

Biological target: c-Myc (exogenous, full length, expressed from pRcCMV-Myc2) (UniProt P01108)
Assay: co-IP (data not shown)

binding: binds
Binder: KFVRSRRPRTASCALAFVN (peptide, not shown: large carriers) [GFP-ARF 26-44]
